Laboratory results reported in PMC5843656.

By UniProt entry, the sequences of proteins in these tests, tags left out. Where a name states a change or a piece, a line headed by the entry shows the natural chain unless it says otherwise.
UniProt Q9CZD3: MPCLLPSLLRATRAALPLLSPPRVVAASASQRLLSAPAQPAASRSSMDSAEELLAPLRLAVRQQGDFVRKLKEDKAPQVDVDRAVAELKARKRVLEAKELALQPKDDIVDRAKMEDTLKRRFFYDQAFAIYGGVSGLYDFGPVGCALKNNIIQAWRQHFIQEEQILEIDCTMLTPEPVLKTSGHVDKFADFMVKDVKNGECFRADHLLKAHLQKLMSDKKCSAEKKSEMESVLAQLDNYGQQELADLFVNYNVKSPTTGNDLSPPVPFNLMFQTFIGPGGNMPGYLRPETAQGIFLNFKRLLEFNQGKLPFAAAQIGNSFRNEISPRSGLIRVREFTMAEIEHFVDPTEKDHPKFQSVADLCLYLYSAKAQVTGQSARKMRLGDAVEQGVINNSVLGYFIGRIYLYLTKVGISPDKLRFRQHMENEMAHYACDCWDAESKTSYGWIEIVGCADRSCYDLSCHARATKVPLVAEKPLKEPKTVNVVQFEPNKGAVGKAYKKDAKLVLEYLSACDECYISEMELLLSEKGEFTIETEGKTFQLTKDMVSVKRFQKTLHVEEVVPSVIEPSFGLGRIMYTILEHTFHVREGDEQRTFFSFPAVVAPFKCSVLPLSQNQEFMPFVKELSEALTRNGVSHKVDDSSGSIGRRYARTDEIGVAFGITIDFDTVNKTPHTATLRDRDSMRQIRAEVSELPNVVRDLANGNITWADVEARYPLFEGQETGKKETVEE

Molecular target: T1, histone deacetylase 6 (HDAC6), endogenous in NSC-34 cells (mouse (endogenous in NSC-34)) (UniProt Q9Z2V5)
T1 sequence: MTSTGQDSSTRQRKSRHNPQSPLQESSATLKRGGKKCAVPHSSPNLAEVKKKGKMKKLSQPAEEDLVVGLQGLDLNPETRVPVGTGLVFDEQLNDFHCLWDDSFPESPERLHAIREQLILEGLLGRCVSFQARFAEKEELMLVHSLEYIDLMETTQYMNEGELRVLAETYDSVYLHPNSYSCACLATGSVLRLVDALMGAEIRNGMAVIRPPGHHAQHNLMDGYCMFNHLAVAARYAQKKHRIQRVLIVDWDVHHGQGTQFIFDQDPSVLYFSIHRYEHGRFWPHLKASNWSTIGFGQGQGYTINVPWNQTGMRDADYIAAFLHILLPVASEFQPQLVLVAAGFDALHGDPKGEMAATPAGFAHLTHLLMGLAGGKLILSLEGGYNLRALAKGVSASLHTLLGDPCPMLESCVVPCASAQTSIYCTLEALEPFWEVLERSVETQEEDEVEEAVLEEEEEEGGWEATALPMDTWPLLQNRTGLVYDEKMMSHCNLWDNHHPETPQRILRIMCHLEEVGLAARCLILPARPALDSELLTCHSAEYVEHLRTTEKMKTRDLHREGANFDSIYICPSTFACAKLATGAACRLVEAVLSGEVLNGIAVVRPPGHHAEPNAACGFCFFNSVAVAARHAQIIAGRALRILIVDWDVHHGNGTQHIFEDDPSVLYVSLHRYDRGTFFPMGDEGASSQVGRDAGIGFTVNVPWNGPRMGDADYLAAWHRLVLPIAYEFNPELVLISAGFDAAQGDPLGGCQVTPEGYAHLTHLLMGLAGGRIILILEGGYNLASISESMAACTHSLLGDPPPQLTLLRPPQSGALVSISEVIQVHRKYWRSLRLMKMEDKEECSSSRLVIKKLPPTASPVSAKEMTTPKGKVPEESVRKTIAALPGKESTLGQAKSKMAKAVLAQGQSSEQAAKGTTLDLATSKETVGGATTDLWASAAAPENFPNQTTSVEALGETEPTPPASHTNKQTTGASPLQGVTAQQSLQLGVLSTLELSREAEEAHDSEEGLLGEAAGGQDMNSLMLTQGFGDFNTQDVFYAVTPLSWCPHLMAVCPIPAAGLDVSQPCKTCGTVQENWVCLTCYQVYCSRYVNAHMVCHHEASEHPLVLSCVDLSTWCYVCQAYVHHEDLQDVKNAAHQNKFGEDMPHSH
Assay: co-IP; lysates of NSC-34 cells transfected with V5-tagged human GlyRS constructs, endogenous HDAC6; antibody on protein G-sepharose, 3 h or overnight at 4 °C, washed four times with cold PBS pH 7.4; western blot

| Substance | binding |
| --- | --- |
| human GlyRS C157R, C-terminal V5-tagged | binds |
| human GlyRS E71G, C-terminal V5-tagged | binds weakly |
| human GlyRS E279D, C-terminal V5-tagged | binds weakly |
| human GlyRS G240R, C-terminal V5-tagged | binds weakly |
| human GlyRS G526R, C-terminal V5-tagged | binds weakly |
| human GlyRS H418R, C-terminal V5-tagged | binds weakly |
| human GlyRS S581L, C-terminal V5-tagged | binds |

Further lines, results first:

| binding | Substance |
| --- | --- |
| binds | human GlyRS G598A, C-terminal V5-tagged |
| binds weakly | human GlyRS L129P, C-terminal V5-tagged |
| binds | human GlyRS P234KY, C-terminal V5-tagged |
| binds weakly | human GlyRS S211F, C-terminal V5-tagged |
| no binding | human GlyRS wild type, C-terminal V5-tagged |

Molecular target: T2, histone deacetylase 6 (HDAC6), endogenous in mouse brain (mouse (endogenous in brain tissue)) (UniProt Q9Z2V5)
T2 sequence: T1 sequence
Assay: co-IP; mouse brain tissue lysates of Gars^+/+ and Gars^P234KY/+ littermates (postnatal day 7); antibody on protein G-sepharose, 3 h or overnight at 4 °C, washed four times with cold PBS pH 7.4; western blot

| binding | Substance |
| --- | --- |
| binds | glycyl-tRNA synthetase (GlyRS) P234KY of Gars^P234KY/+ CMT2D mice (from UniProt Q9CZD3) |

These are yes or no findings as the source states them, for the method shown. In cells and extracts the contact can be indirect. Binding calls can cover weak binding; strength is not graded here. Sequences can lack the tags named with a protein.
